Among the data in paper PMC3869942 are binding values, retold here.

The chains behind the UniProt entries cited, without tags or fusion partners.
UniProt Q9UKI8: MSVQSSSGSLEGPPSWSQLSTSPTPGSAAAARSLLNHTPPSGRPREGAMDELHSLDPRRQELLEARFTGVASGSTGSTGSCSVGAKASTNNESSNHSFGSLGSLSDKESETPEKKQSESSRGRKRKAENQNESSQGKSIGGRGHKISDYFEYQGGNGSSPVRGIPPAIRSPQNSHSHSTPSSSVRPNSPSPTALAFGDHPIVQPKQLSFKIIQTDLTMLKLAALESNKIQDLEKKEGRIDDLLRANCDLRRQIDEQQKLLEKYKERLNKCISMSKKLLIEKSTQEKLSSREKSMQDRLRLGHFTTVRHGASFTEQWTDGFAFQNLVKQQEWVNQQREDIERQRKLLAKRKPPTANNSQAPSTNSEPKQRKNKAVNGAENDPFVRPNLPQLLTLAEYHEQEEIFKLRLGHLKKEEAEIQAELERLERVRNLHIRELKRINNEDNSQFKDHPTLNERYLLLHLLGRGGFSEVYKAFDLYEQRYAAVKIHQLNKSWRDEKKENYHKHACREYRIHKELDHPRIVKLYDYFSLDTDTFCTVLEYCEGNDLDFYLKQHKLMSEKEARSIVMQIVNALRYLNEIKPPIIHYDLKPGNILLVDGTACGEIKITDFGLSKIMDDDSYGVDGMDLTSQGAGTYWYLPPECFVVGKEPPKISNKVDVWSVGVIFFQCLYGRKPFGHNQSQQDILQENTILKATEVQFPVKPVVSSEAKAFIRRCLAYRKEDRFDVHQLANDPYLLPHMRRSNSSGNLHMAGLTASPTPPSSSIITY

These are yes or no findings as the source states them, for the method shown. Binding seen in cells or lysates may run through a third protein. Some binding calls cover weakened binding; strength is not graded here.

The target in the test is T1, Rad9 (human (endogenous in HeLa)) (UniProt Q99638).
T1 sequence: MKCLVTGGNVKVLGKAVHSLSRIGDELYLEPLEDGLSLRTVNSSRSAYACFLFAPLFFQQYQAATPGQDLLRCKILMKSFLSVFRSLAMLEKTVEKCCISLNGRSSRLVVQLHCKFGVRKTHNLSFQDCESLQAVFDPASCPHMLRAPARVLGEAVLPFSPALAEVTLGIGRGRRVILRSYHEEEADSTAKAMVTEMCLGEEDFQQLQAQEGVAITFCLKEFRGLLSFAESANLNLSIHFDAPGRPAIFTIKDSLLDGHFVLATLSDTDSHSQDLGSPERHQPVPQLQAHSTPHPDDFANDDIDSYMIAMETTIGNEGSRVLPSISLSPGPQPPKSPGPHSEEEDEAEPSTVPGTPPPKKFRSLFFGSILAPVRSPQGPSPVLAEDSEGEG
The test is described as follows: co-IP; HeLa cells synchronised at G1/S with a single thymidine block, released 2 hr, exposed to 10Gy IR and harvested at progressive time-points; lysed in NETN buffer (250mM NaCl, 20mM Tris pH 8.0, 0.5% Nonidet P-40, 10% glycerol) in the presence or absence of DNase I; immunoprecipitation with chicken polyclonal anti-Rad9 and anti-chicken IgY-agarose, overnight at 4°C; immunoblot for TLK1. (Immunoblotting shows a protein as a band on a membrane.)

As for “Tousled-like kinase 1 (from UniProt Q9UKI8 1-766) (enzyme)”, the binding entry is “binds”.
